Data reported in patent US20250368962A1, “THREE-DIMENSIONAL HEPATIC TISSUE AND METHOD OF MANUFACTURING THE SAME” (TOPPAN HOLDINGS INC., priority 2023, published 2025).
pIC50: −log10 of the molar value.

How the values were obtained:
[1] = system: three-dimensional hepatic tissue consisting only of human hepatocytes (PXB cells); assay: ATP assay (CellTiter Glo 3D) viability after exposure to hepatotoxicity-inducing compounds, Test Example 6 Condition 1; format: cell-based; conditions: Hepatocyte, calculated from cell viability (ATP), exposure 168 hours from day 8 of culture, no bile acids, read-out: IC50 Condition 1 (present tissue)
Description: The resulting mixture was centrifuged at room temperature at 400×g for 2 minutes, the supernatant was removed, and the cells were resuspended in an HCM (product number “CC-3198”, manufactured by Lonza) containing 10 U/mL thrombin (product number “R4648”, manufactured by Sigma-Aldrich) and 1 v/v % endothelial cell growth supplement (ECGS) (product number “1052”, manufactured by Sciencell) to a cell density of 1.95×10^4 cells/2 μL to obtain a cell suspension.
2 μL of an HCM containing 5 mg/mL fibrinogen and 1 v/v % ECGS was added to a 48-well microplate (product number “3830-048”, manufactured by AGC Techno Glass) to form a droplet. The cell suspension was added to the interior of each droplet, and the 48-well microplate was then left to stand in an incubator for 40 minutes to form a fibrin gel in which the human hepatocytes were embedded. 0.5 mL of HCM containing 1 v/v % ECGS was added to each well in which the fibrin gel had been formed, and the cells were cultured under the conditions of 37° C. and 5% CO2. After the start of the culture, the medium was changed every two days.

[2] = system: spheroids consisting only of human hepatocytes (PXB cells); assay: ATP assay (CellTiter Glo 3D) viability after exposure to hepatotoxicity-inducing compounds, Test Example 6 Condition 2; format: cell-based; conditions: calculated from cell viability (ATP), hepatocyte spheroids, exposure 168 hours, no bile acids, read-out: IC50 Condition 2 (spheroid)

CCCCc1oc2ccccc2c1C(=O)c1cc(I)c(OCCN(CC)CC)c(I)c1 [Amiodarone]
pIC50 [1]: 4.49 | pIC50 [2]: 4.28
